PubChem BioAssay AID1159578, Peter MacCallum Cancer Centre, 2015

- Test: 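Genome-wide hunt for genes controlling movement of lymphatic endothelial cells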 (primary screen)
- System: human lymphatic endothelial cells
- Knock-down reagent: siRNA pool against human genes, 40 nM
- Duration: 48 h after transfection
- Measured: 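Cells stained with dye and imaged after a scratch; covered wound area and nuclei counted, duplicates averaged, migration set against mock wells and turned into a robust z-score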
- Scale: migration robust z-score: higher = faster migration into the scratch; nuclei per well: higher = more cells in the well
- Rule for the call: 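Migration changed when robust z exceeds 2 or falls below -2 and mean nuclei number is at least 3300; otherwise not called changed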
- Meaning of the calls: active = migration changed; inactive = no migration change, or too few cells
This is one part, drawn at random, of about 18,000 reagents. Over the whole deposit, about 1,030 (5.7%) are marked active. 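Inactive calls also include pools with fewer than 3300 nuclei, whose migration was not assessed.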 The raw values are shown without normalisation. Further read-outs or replicates are left out here.

{"gene symbol": "OR2W3", "migration robust z-score": 0.88, "migration class with cell-count check": "migration z between -2 and 2; enough cells", "nuclei per well, duplicate mean": 5200, "Outcome": "inactive"}
{"gene symbol": "MCTP1", "migration robust z-score": 0.67, "migration class with cell-count check": "migration z between -2 and 2; enough cells", "nuclei per well, duplicate mean": 7504, "Outcome": "inactive"}
{"gene symbol": "ABR", "migration robust z-score": -3.01, "migration class with cell-count check": "migration z below -2; enough cells", "nuclei per well, duplicate mean": 5152, "Outcome": "active"}
{"gene symbol": "HAND2", "migration robust z-score": -1.33, "migration class with cell-count check": "migration z between -2 and 2; enough cells", "nuclei per well, duplicate mean": 5554, "Outcome": "inactive"}
{"gene symbol": "CPXCR1", "migration robust z-score": 0.59, "migration class with cell-count check": "migration z between -2 and 2; enough cells", "nuclei per well, duplicate mean": 5998, "Outcome": "inactive"}
{"gene symbol": "GABRB3", "migration robust z-score": 0.57, "migration class with cell-count check": "migration z between -2 and 2; enough cells", "nuclei per well, duplicate mean": 4394, "Outcome": "inactive"}
{"gene symbol": "ALKBH6", "migration robust z-score": -0.08, "migration class with cell-count check": "migration z between -2 and 2; enough cells", "nuclei per well, duplicate mean": 5470, "Outcome": "inactive"}
{"gene symbol": "RRAGB", "migration robust z-score": 1.01, "migration class with cell-count check": "migration z between -2 and 2; enough cells", "nuclei per well, duplicate mean": 5054, "Outcome": "inactive"}
{"gene symbol": "IGFL4", "migration robust z-score": -1.5, "migration class with cell-count check": "migration z between -2 and 2; enough cells", "nuclei per well, duplicate mean": 5546, "Outcome": "inactive"}
{"gene symbol": "TSLIG3B", "migration robust z-score": -0.75, "migration class with cell-count check": "migration z between -2 and 2; enough cells", "nuclei per well, duplicate mean": 6693, "Outcome": "inactive"}
{"gene symbol": "CENPH", "migration robust z-score": -1.59, "migration class with cell-count check": "migration z between -2 and 2; enough cells", "nuclei per well, duplicate mean": 4982, "Outcome": "inactive"}
{"gene symbol": "ATP7B", "migration robust z-score": -0.52, "migration class with cell-count check": "migration z between -2 and 2; enough cells", "nuclei per well, duplicate mean": 5902, "Outcome": "inactive"}
{"gene symbol": "SSUH2", "migration robust z-score": 0.31, "migration class with cell-count check": "migration z between -2 and 2; enough cells", "nuclei per well, duplicate mean": 5046, "Outcome": "inactive"}
{"gene symbol": "TRRAP", "migration robust z-score": 0.57, "migration class with cell-count check": "migration z between -2 and 2; enough cells", "nuclei per well, duplicate mean": 4576, "Outcome": "inactive"}
{"gene symbol": "SKIC8", "migration robust z-score": -0.12, "migration class with cell-count check": "migration z between -2 and 2; enough cells", "nuclei per well, duplicate mean": 4502, "Outcome": "inactive"}
{"gene symbol": "ALOX5AP", "migration robust z-score": -0.96, "migration class with cell-count check": "migration z between -2 and 2; enough cells", "nuclei per well, duplicate mean": 7189, "Outcome": "inactive"}
{"gene symbol": "CACNG7", "migration robust z-score": -0.42, "migration class with cell-count check": "migration z between -2 and 2; enough cells", "nuclei per well, duplicate mean": 4640, "Outcome": "inactive"}
{"gene symbol": "MIR1-1HG", "migration robust z-score": 1.15, "migration class with cell-count check": "migration z between -2 and 2; enough cells", "nuclei per well, duplicate mean": 5802, "Outcome": "inactive"}
{"gene symbol": "PTGR1", "migration robust z-score": 0.1, "migration class with cell-count check": "migration z between -2 and 2; enough cells", "nuclei per well, duplicate mean": 6184, "Outcome": "inactive"}
{"gene symbol": "MAP3K5", "migration robust z-score": 1.17, "migration class with cell-count check": "migration z between -2 and 2; enough cells", "nuclei per well, duplicate mean": 6095, "Outcome": "inactive"}
{"gene symbol": "KANK1", "migration robust z-score": -0.71, "migration class with cell-count check": "migration z between -2 and 2; enough cells", "nuclei per well, duplicate mean": 4652, "Outcome": "inactive"}
{"gene symbol": "POTED", "migration robust z-score": 2.02, "migration class with cell-count check": "migration z above 2; enough cells", "nuclei per well, duplicate mean": 7102, "Outcome": "active"}
{"gene symbol": "SPA17", "migration robust z-score": 0.2, "migration class with cell-count check": "migration z between -2 and 2; enough cells", "nuclei per well, duplicate mean": 5634, "Outcome": "inactive"}
{"gene symbol": "RAPGEF3", "migration robust z-score": -0.23, "migration class with cell-count check": "migration z between -2 and 2; enough cells", "nuclei per well, duplicate mean": 6097, "Outcome": "inactive"}
{"gene symbol": "PPP1R3D", "migration robust z-score": -1.87, "migration class with cell-count check": "migration z between -2 and 2; enough cells", "nuclei per well, duplicate mean": 5694, "Outcome": "inactive"}
{"gene symbol": "H1-4", "migration robust z-score": 1.48, "migration class with cell-count check": "migration z between -2 and 2; enough cells", "nuclei per well, duplicate mean": 6648, "Outcome": "inactive"}
{"gene symbol": "F2", "migration robust z-score": 0.68, "migration class with cell-count check": "migration z between -2 and 2; enough cells", "nuclei per well, duplicate mean": 5400, "Outcome": "inactive"}
